Laboratory results: patent US20190062414A1 (PHILOGEN S P A, published 2019)
No constants are given. Whether binding was seen depends on the method and setting. Some entries that bind do so weakly or less than the wild type.

Tests used:
[1] = molecular target: T1, BCD domains of murine tenascin-C (murine, UniProt Q80YX1 1349-1620, limits assumed); test: SPR (Biacore), BCD domains of murine tenascin-C on CM5 chip
T1 construct: domain: BCD domains; Coated on a CM5 chip; also called domain BCD of murine Tenascin-C
T1 sequence (looked up): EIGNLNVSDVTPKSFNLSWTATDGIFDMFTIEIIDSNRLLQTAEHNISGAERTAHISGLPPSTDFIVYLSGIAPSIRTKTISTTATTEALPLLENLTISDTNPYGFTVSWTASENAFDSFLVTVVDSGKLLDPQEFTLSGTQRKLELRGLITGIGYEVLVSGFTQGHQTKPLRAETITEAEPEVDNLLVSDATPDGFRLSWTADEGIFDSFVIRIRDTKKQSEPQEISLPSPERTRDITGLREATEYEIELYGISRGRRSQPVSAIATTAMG

[2] = molecular target: T1, BCD domains of murine tenascin-C; test: Biacore (SPR)

B1: scFv(CPR01) (scFv)
scFv: EVQLLESGGGLVQPGGSLRLSCAASGFTFSSYAMSWVRQAPGKGLEWVSAIKARGGLTYYADSVKGRFTISRDNSKNTLYLQMNSLRAEDTAVYYCAKGGAPFDYWGQGTLVTVSSGGGGSGGGGSGGGGSSELTQDPAVSVALGQTVRITCQGDSLRSYYASWYQQKPGQAPVLVIYGKNNRPSGIPDRFSGSSSGNTASLTITGAQAEDEADYYCNSSPLNRLAVVFGGGTKLTVLG
notes: Expressed in CHO.S cells as scFv
- binding [1]: binds
- binding [2]: binds
